Measurements taken from the supplement of paper PMC4371806.
In all, about 1,600 compounds were measured (“plate-normalized OD600 growth (mean of duplicates)”: median about 0.31, lowest 2% from about 0.23 on). Some of the results follow.

Test system: Escherichia coli BW25113
Experiment: plate-normalized OD600 growth (mean of duplicates) (OD600 (normalized)); higher = more growth (less inhibition)
Conditions: 10 µM
Procedure: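 E. coli BW25113 in LB (100 µl, 96-well, no shaking) was exposed to 10 µM of each compound (here the ChemBridge subset of a ~30,000-member library) and grown at 37°C for 24 h or 15°C for 48 h, in duplicate. Growth was read as OD600 and the duplicate ODs were normalized across screening plates to correct plate-to-plate variation.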

Row | SMILES | plate-normalized OD600 growth (temperature: 15°C, 48 h) | plate-normalized OD600 growth (temperature: 37°C, 24 h)
1 | N[n+]1cnn(CC(=O)c2ccccc2[N+](=O)[O-])c1 | 0.257 | 0.624
2 | CCN(CC)C(=O)C1CCCN(Cc2ccc(Cl)cc2Cl)C1 (stereo not given) | 0.247 | 0.616
3 | CC(C)(C)NCc1ccc([N+](=O)[O-])cc1 | 0.266 | 0.622
4 | CC(=O)c1nc2ccccc2n1Cc1ccccc1 | 0.234 | 0.608
5 | O=C(NCCCNc1ccc([N+](=O)[O-])cc1)c1ccc(F)cc1 | 0.242 | 0.621
6 | O=C(c1ccc(Br)o1)n1cnc2ccccc21 | 0.29 | 0.627
7 | O=[N+]([O-])c1ccc(N2CCN(CCO)CC2)cc1 | 0.238 | 0.603
8 | CCCC(=O)NC(c1ccccc1)c1ccccc1 | 0.265 | 0.637
9 | CCCCOc1ccc(C2(C)CC(=O)NC2=O)cc1 (stereo not given) | 0.258 | 0.634
10 | C=CCSc1nc(O)cc(=O)n1C | 0.24 | 0.611
11 | CCc1nc2ccccc2c(NC(=O)CN2CCCCCC2)c1C | 0.245 | 0.616
12 | N#C/C(=C\c1cccs1)c1nc(-c2cccs2)cs1 | 0.236 | 0.583
13 | COc1ccc(OC)c(NC(=O)c2cccnc2)c1 | 0.262 | 0.624
14 | CCSc1nc(O)c(C(C)CC)c(=O)[nH]1 (stereo not given) | 0.248 | 0.608
15 | O=Cc1ccc(-c2ccc(Cl)c(C(=O)O)c2)o1 | 0.268 | 0.622
16 | CN1CCN(C(=O)c2sc3cc(Cl)ccc3c2Cl)CC1 | 0.256 | 0.615
17 | COc1ccc(-c2cc(C3CC3)nc(SC)c2C#N)cc1 | 0.249 | 0.61
18 | Cn1c(NC(=O)c2ccc(F)cc2)nc2ccccc21 | 0.267 | 0.619
19 | Cc1ccc(C)c(N2CCN(C3Cc4ccccc4C3)CC2)c1 | 0.251 | 0.616
20 | CC(=O)Nc1ccc(NC(=O)CCCC(=O)O)cc1 | 0.253 | 0.618
21 | Cc1cccc(N2C(=O)CC(N3CCN(Cc4ccccc4)CC3)C2=O)c1 (stereo not given) | 0.254 | 0.616
22 | Cc1occc1C(=O)N1CCN(c2ccc([N+](=O)[O-])cc2)CC1 | 0.262 | 0.639

Row | SMILES | plate-normalized OD600 growth (temperature: 15°C, 48 h) | plate-normalized OD600 growth (temperature: 37°C, 24 h)
23 | COc1ccc(CN2CCN(c3ccccn3)CC2)cc1C | 0.236 | 0.638
24 | O=C(Nc1nc(/C=C/c2ccccc2)[nH]c(=O)n1)NS(=O)(=O)c1ccccc1Cl | 0.249 | 0.587
25 | NC(=O)CC(NC(=O)c1ccco1)C(=O)O (stereo not given) | 0.232 | 0.613
26 | N#Cc1cccc2c1-c1ccccc1C2=O | 0.237 | 0.623
27 | CCc1cc(CC)c(CO)c(CC)c1CO | 0.265 | 0.622
28 | COc1cccc(N2CCN(CC3CC4C=CC3C4)CC2)c1 (stereo not given) | 0.296 | 0.627
29 | CCN1CCC(N2CCN(c3ccc(Cl)cc3)CC2)CC1 | 0.26 | 0.628
30 | O=C1CC(N2CCOCC2)C(=O)N1c1cccc(Cl)c1 (stereo not given) | 0.247 | 0.609
31 | O=C(Cn1c(NCCCO)nc2ccccc21)c1ccccc1 | 0.229 | 0.622
32 | O=C(CSc1nc2ccccc2[nH]1)c1ccc(Cl)c(Cl)c1 | 0.256 | 0.601
33 | Cc1[nH]nc2c1C(c1ccccc1I)C(C#N)=C(N)O2 (stereo not given) | 0.233 | 0.613
34 | O=C(NCC1CCCO1)c1sc2ccccc2c1Cl (stereo not given) | 0.27 | 0.633
35 | CCN(Cc1ccccc1)C(=O)Cc1ccccc1 | 0.262 | 0.642
36 | CCCn1[nH]cc(SC)c(=O)c1=O | 0.238 | 0.633
37 | O=c1[nH]c(/C=C/c2cccc(Br)c2)c([N+](=O)[O-])c(=O)[nH]1 | 0.247 | 0.617
38 | O=C(CSc1nc2ccccc2s1)Nc1ccccc1Br | 0.239 | 0.609
39 | O=C([C@@H]1C[C@@H]1c1ccccc1)N1CCOCC1 | 0.26 | 0.641
40 | CCN(CCN(C)C)Cc1cccc(Cl)c1 | 0.251 | 0.633
41 | OCCN1CCN(Cc2cc(Br)cs2)CC1 | 0.242 | 0.6
42 | OCCN1CCN(CC2CC=CCC2)CC1 (stereo not given) | 0.228 | 0.604
43 | CN(CC(=O)N1CCCC1=O)Cc1ccccc1 | 0.247 | 0.617
44 | C=CCNc1nc(NCC=C)nc(OC)n1 | 0.25 | 0.627

Row | SMILES | plate-normalized OD600 growth (temperature: 15°C, 48 h) | plate-normalized OD600 growth (temperature: 37°C, 24 h)
45 | Nc1nc(-c2ccco2)nc(-c2ccco2)n1 | 0.272 | 0.646
46 | c1ccc(-c2nonc2-c2ccccc2)cc1 | 0.255 | 0.627
47 | N#CC1=C(N)Oc2c([nH]c(=O)[nH]c2=O)C1c1cccc([N+](=O)[O-])c1 (stereo not given) | 0.258 | 0.633
48 | NS(=O)(=O)c1ccc(NC(=O)CCc2ccccc2)cc1 | 0.239 | 0.624
49 | CCCn1c(SCCC(=O)O)nc2ccccc21 | 0.257 | 0.621
50 | COc1ccc(N2C(=O)CC(N(C)Cc3ccccc3)C2=O)cc1 (stereo not given) | 0.237 | 0.616
51 | Cc1cccc2c1[nH]c1nc(NN)nnc12 | 0.277 | 0.611
52 | Cc1c(C=O)c2ccccc2n1CC(N)=O | 0.258 | 0.64
53 | O=c1[nH]c2nonc2nc1Nc1ccccc1 | 0.245 | 0.603
54 | Cc1nc(-c2cccc(NC(=O)c3ccccc3)c2)cs1 | 0.24 | 0.606
55 | CCN(CC)C(=O)C1CCCN(Cc2ccc(F)c(F)c2)C1 (stereo not given) | 0.263 | 0.641
56 | CC1CN(C/C=C/c2ccccc2)CC(C)O1 (stereo not given) | 0.232 | 0.603
57 | O=C(c1ccc(Cl)cc1)N1CCN(C(=O)c2ccco2)CC1 | 0.244 | 0.646
58 | CC(=O)Nc1ccc(C(=O)Nc2ccccc2Cl)cc1 | 0.253 | 0.613
59 | CC1CCCC(C)N1C(=O)c1ccc(Cl)cc1 (stereo not given) | 0.256 | 0.611
60 | NC(=O)c1sc2nc3c(cc2c1N)CCCC3 | 0.233 | 0.618
61 | O=C(COc1ccc(Br)cc1)Nc1ccccc1Cl | 0.265 | 0.61
62 | OC(COc1ccc(OCC(O)CN2CCCC2)cc1)CN1CCCC1 (stereo not given) | 0.244 | 0.624
63 | COc1cc(CNc2ccccc2C)cc2c1OCO2 | 0.245 | 0.615
64 | Cc1ccsc1CN1CCN(CCO)CC1 | 0.268 | 0.629
65 | CCN(CC)C(=O)C1CCCN(Cc2ccc(F)cc2F)C1 (stereo not given) | 0.262 | 0.634
66 | CC(=O)c1ccc(Oc2ccc(N)cc2)cc1 | 0.23 | 0.614

Structures from the list above containing a COOH group:
Row | SMILES | plate-normalized OD600 growth (temperature: 15°C, 48 h) | plate-normalized OD600 growth (temperature: 37°C, 24 h)
15 | O=Cc1ccc(-c2ccc(Cl)c(C(=O)O)c2)o1 | 0.268 | 0.622
20 | CC(=O)Nc1ccc(NC(=O)CCCC(=O)O)cc1 | 0.253 | 0.618
25 | NC(=O)CC(NC(=O)c1ccco1)C(=O)O (stereo not given) | 0.232 | 0.613
49 | CCCn1c(SCCC(=O)O)nc2ccccc21 | 0.257 | 0.621

Following part

Row | SMILES | plate-normalized OD600 growth (temperature: 15°C, 48 h) | plate-normalized OD600 growth (temperature: 37°C, 24 h)
67 | CC(Cc1c[nH]c2ccccc12)NC(=O)c1ccco1 (stereo not given) | 0.253 | 0.637
68 | CN1CCCN(Cc2coc3c(Cl)cc(Cl)cc3c2=O)CC1 | 0.245 | 0.631
69 | O=C(NC1CCCCC1)c1ccc(Br)c(S(=O)(=O)N2CCCCC2)c1 | 0.25 | 0.611
70 | N#CC1=C(N)SC(N)=C(C#N)C1c1ccc2c(c1)OCO2 | 0.234 | 0.629
71 | O=C(Nc1cccc(Cl)c1)c1ccccc1C(=O)Nc1cccc(Cl)c1 | 0.26 | 0.649
72 | O=C1CN(S(=O)(=O)CCOc2ccccc2)CC(=O)N1CCc1ccccc1 | 0.256 | 0.632
73 | C#CCSc1nc2ccccc2n1C(=O)c1ccc(S(=O)(=O)N2CCCCC2)cc1 | 0.259 | 0.617
74 | Nc1n[nH]c(-c2ccc(Br)cc2)n1 | 0.255 | 0.611
75 | CSc1nnc2c(n1)OC(c1cc3c(cc1Cl)OCO3)Nc1ccccc1-2 (stereo not given) | 0.241 | 0.61
76 | CC(=O)Nc1cccc(NC(=O)c2cccc(C)c2)c1 | 0.248 | 0.601
77 | COc1ccc(NC(=O)c2ccccc2Br)c(OC)c1 | 0.258 | 0.615
78 | CCSc1nc(NN)c2c3c(sc2n1)CN(C)CC3 | 0.266 | 0.622
79 | NS(=O)(=O)c1cccc(NS(=O)(=O)c2ccc(O)c([N+](=O)[O-])c2)c1 | 0.263 | 0.62
80 | O=C(c1ccccc1[N+](=O)[O-])N1CCN(C(c2ccccc2)c2ccccc2)CC1 | 0.259 | 0.627
81 | CCC(C)c1ccc(NC(=O)c2cccnc2)cc1 (stereo not given) | 0.246 | 0.611
82 | COc1cc(CN2CCN(c3cccc(C)c3C)CC2)cc(Br)c1O | 0.257 | 0.628
83 | Clc1cccc(CN2CCN(c3ccccn3)CC2)c1 | 0.247 | 0.607
84 | Cc1cc(C)c(NC(=O)C2CCCCN2C23CC4CC(CC(C4)C2)C3)c(C)c1 (stereo not given) | 0.258 | 0.623
85 | COc1cccc(N2CCN(C3C4CC5CC(C4)CC3C5)CC2)c1 (stereo not given) | 0.291 | 0.627
86 | O=C(NCc1ccccn1)c1ccccc1F | 0.237 | 0.605
87 | CN1CCOCC1.N=C=C1C(=S)NC2=C(C(=O)CCC2)C1Cc1ccccc1 (stereo not given) | 0.259 | 0.623
88 | O=C(O)CCCC(=O)Nc1ccc(I)cc1 | 0.25 | 0.607

Row | SMILES | plate-normalized OD600 growth (temperature: 15°C, 48 h) | plate-normalized OD600 growth (temperature: 37°C, 24 h)
89 | O=[N+]([O-])c1ccc(CNC2CCCC2)cc1 | 0.254 | 0.621
90 | CC(C)(CO)NC(=O)C(C)(C)Oc1ccc(Cl)cc1 | 0.247 | 0.623
91 | Cc1ccccc1OC(=O)OCC(C)C | 0.257 | 0.61
92 | CC(=O)c1ccc(N2CCN(Cc3coc4c(Cl)cc(Cl)cc4c3=O)CC2)cc1 | 0.244 | 0.607
93 | C#CCSc1nc(C)cc(C)c1C#N | 0.24 | 0.613
94 | COc1ccc(N2C(=O)CC(NCc3cccnc3)C2=O)cc1 (stereo not given) | 0.256 | 0.621
95 | COc1ccc2nc(-c3ccccc3)n(C)c2c1OC | 0.247 | 0.614
96 | O=c1cc(Nc2ccc(Br)cc2)[nH]c(=O)[nH]1 | 0.252 | 0.618
97 | CC1=CC(C)C2(COC(=O)Nc3ccccc3)COC(C)C1C2C (stereo not given) | 0.249 | 0.611
98 | CC(=O)Nc1ccc(-c2cc(-c3ccc(NC(C)=O)cc3)nc(-c3ccccc3)n2)cc1 | 0.246 | 0.587
99 | CCOc1ccc(Nc2nc(-c3ccc(C)c(C)c3)cs2)cc1 | 0.248 | 0.605
100 | C#CCSc1nc2c(cc1C#N)CCCCC2 | 0.256 | 0.612
101 | O=C(O)CCC(=O)N1CCN(C(=O)c2ccco2)CC1 | 0.24 | 0.635
102 | CC(=O)Nc1ccc(NC(=O)c2ccc(-c3ccccc3)cc2)cc1 | 0.263 | 0.632
103 | Cc1ccc(NC(=O)c2ccc(Br)o2)c(C)c1 | 0.247 | 0.638
104 | COc1ccc(/C=C(\C#N)c2nc(-c3ccc(F)cc3)cs2)cc1 | 0.228 | 0.615
105 | COc1cc2c(cc1OC)C(c1ccccc1)NCC2 (stereo not given) | 0.248 | 0.611
106 | COc1cccc(NC(=O)c2cccc(I)c2)c1 | 0.244 | 0.596
107 | CC1CCCC(C)N1C(=O)Cc1ccccc1 (stereo not given) | 0.233 | 0.611
108 | Cc1cc(=O)[nH]c2ccc([N+](=O)[O-])cc12 | 0.244 | 0.609
109 | Fc1ccccc1OCCSc1ncnc2nc[nH]c12 | 0.258 | 0.613
110 | Cc1ccccc1OCCCC(=O)Nc1ccc([N+](=O)[O-])cc1Br | 0.251 | 0.649
